According to paper PMC10813316:
These are yes or no findings as the source states them, for the method shown. Binding seen in cells or lysates may run through a third protein. A result given as binding can be weak or reduced; the word gives no strength.

Amino acid sequences for entries named in this document (tags omitted). A change or cut given only in a name is not applied to a line headed by its entry.
UniProt P55085: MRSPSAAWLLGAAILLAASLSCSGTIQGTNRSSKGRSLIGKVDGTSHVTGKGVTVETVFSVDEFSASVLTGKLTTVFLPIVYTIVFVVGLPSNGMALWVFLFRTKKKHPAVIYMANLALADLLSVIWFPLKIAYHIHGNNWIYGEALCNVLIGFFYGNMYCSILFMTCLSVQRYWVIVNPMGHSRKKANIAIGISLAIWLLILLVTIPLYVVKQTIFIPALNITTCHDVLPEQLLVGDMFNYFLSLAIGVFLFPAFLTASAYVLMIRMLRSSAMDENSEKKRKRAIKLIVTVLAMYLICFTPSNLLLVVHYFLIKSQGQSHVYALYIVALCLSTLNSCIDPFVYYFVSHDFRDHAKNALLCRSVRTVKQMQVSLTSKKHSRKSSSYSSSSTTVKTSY

Target: protease-activated receptor 2 (PAR2), endogenous (human (endogenous in ES2 and OVCAR3)) (UniProt P55085)
Assay: co-IP; OVCAR3 cells activated with SLIGKV for the indicated times; lysates precipitated with anti-PAR2 antibodies, blot with anti-Etk/Bmx; endogenous proteins

binding: binds
B1: epithelial tyrosine kinase (Etk), also known as Bmx, endogenous in OVCAR3 cells (enzyme, UniProt P51813 1-675)
chain: MDTKSILEELLLKRSQQKKKMSPNNYKERLFVLTKTNLSYYEYDKMKRGSRKGSIEIKKIRCVEKVNLEEQTPVERQYPFQIVYKDGLLYVYASNEESRSQWLKALQKEIRGNPHLLVKYHSGFFVDGKFLCCQQSCKAAPGCTLWEAYANLHTAVNEEKHRVPTFPDRVLKIPRAVPVLKMDAPSSSTTLAQYDNESKKNYGSQPPSSSTSLAQYDSNSKKIYGSQPNFNMQYIPREDFPDWWQVRKLKSSSSSEDVASSNQKERNVNHTTSKISWEFPESSSSEEEENLDDYDWFAGNISRSQSEQLLRQKGKEGAFMVRNSSQVGMYTVSLFSKAVNDKKGTVKHYHVHTNAENKLYLAENYCFDSIPKLIHYHQHNSAGMITRLRHPVSTKANKVPDSVSLGNGIWELKREEITLLKELGSGQFGVVQLGKWKGQYDVAVKMIKEGSMSEDEFFQEAQTMMKLSHPKLVKFYGVCSKEYPIYIVTEYISNGCLLNYLRSHGKGLEPSQLLEMCYDVCEGMAFLESHQFIHRDLAARNCLVDRDLCVKVSDFGMTRYVLDDQYVSSVGTKFPVKWSAPEVFHYFKYSSKSDVWAFGILMWEVFSLGKQPYDLYDNSQVVLKVSQGHRLYRPHLASDTIYQIMYSCWHELPEKRPTFQQLLSSIEPLREKDKH
